Experimental data: PubChem BioAssay AID652259 (Drosophila RNAi Screening Center, 2013)
The deposit covers about 22,000 reagents; shown is an unselected part of those with a known target gene and a result. In the full data, 233 (1.1%) got an active call. 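Light values are raw, unnormalised plate reads; the ratio scores behind the reporter calls were not deposited.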 Entries without a mark were called inactive. A plus sign joins genes that one reagent is predicted to hit. Not stated in the record: the amount of reagent, the time to read-out, the dose of the treatment.

- Screen: 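Knock-downs that push a Wingless-driven reporter up or down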 (primary screen)
- Cells: Drosophila clone 8 imaginal disc epithelial cells
- Reagent: long dsRNA against Drosophila genes
- Treatment: pathway stimulated by co-transfected Wingless expression plasmid
- Read-out: 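Firefly luciferase from a tcf-site Wingless reporter, measured alongside co-transfected Renilla luciferase that tracks transfection; pathway stimulated by a Wingless plasmid; the firefly-to-Renilla ratio is not deposited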
- Reading the numbers: firefly reporter light: higher = more Wg reporter light, before normalisation; Renilla control light: higher = more transfected or surviving cells
- Call rule: 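a knock-down is a candidate when at least two out of four statistical tests show it departing from its plate mean; one test alone signals a weak candidate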
- Meaning of the calls: active = candidate regulator (raises or lowers reporter); inactive = not a candidate

How did the screen score CG3939 [DRSC18498]?
firefly reporter light, replicate 1: 21882; Renilla control light, replicate 1: 11613

What is on record for Chc [DRSC20229]?
firefly reporter light, replicate 1: 4880; firefly reporter light, replicate 2: 10276; Renilla control light, replicate 1: 850; Renilla control light, replicate 2: 1923

With CG30356 [DRSC05119], how do the results read?
firefly reporter light, replicate 1: 27632; Renilla control light, replicate 1: 12544

Which result is listed for Wdr24 [DRSC14151]?
firefly reporter light, replicate 1: 2371; firefly reporter light, replicate 2: 5216; Renilla control light, replicate 1: 1074; Renilla control light, replicate 2: 1734

How did the screen score CG14518 [DRSC14870]?
firefly reporter light, replicate 1: 7270; Renilla control light, replicate 1: 3387

For retm [DRSC03252], how do the results read?
firefly reporter light, replicate 1: 10422; Renilla control light, replicate 1: 4208

How did the screen score CG13857 [DRSC14707]?
firefly reporter light, replicate 1: 38885; Renilla control light, replicate 1: 6395

With bwa [DRSC01749], what was measured?
firefly reporter light, replicate 1: 16560; Renilla control light, replicate 1: 9072

For bwa [DRSC02310], how do the results read?
firefly reporter light, replicate 1: 4248; firefly reporter light, replicate 2: 6976; Renilla control light, replicate 1: 912; Renilla control light, replicate 2: 3304

For CG17929 [DRSC15291], what does the deposit list?
firefly reporter light, replicate 1: 14400; Renilla control light, replicate 1: 2923

With CG32221 [DRSC09638], what was measured?
firefly reporter light, replicate 1: 2745; Renilla control light, replicate 1: 1260

What did the screen give for Cyp6a19 [DRSC07379]?
firefly reporter light, replicate 1: 12776; Renilla control light, replicate 1: 4001

With Tsp42Eb + CG30160 [DRSC04961], how do the results read?
firefly reporter light, replicate 1: 28181; Renilla control light, replicate 1: 12517

Which result is listed for Tsp42Eb + CG30160 [DRSC06791]?
firefly reporter light, replicate 1: 3288; firefly reporter light, replicate 2: 7610; Renilla control light, replicate 1: 896; Renilla control light, replicate 2: 3356

How did the screen score Start1 [DRSC04384]?
firefly reporter light, replicate 1: 15605; Renilla control light, replicate 1: 4532

What did the screen give for Uch-L5R [DRSC19825]?
firefly reporter light, replicate 1: 18116; Renilla control light, replicate 1: 8634

For Abi [DRSC14099], what was measured?
firefly reporter light, replicate 1: 7339; Renilla control light, replicate 1: 1884

With nac [DRSC16520], how do the results read?
firefly reporter light, replicate 1: 18711; Renilla control light, replicate 1: 4619

For CG32032 [DRSC08961], what was measured?
firefly reporter light, replicate 1: 2362; Renilla control light, replicate 1: 1387

For Prosalpha3 [DRSC04644], how do the results read?
firefly reporter light, replicate 1: 1056; firefly reporter light, replicate 2: 4231; Renilla control light, replicate 1: 268; Renilla control light, replicate 2: 1353

With CG5892 [DRSC15910], how do the results read?
firefly reporter light, replicate 1: 39539; Renilla control light, replicate 1: 8464

For gammaSnap1 [DRSC04686], how do the results read?
firefly reporter light, replicate 1: 12042; Renilla control light, replicate 1: 3133

What is on record for stops [DRSC15095]?
firefly reporter light, replicate 1: 6020; Renilla control light, replicate 1: 2098

For stops [DRSC15096], what does the deposit list?
firefly reporter light, replicate 1: 7797; Renilla control light, replicate 1: 3466

With stops [DRSC15097], what does the deposit list?
firefly reporter light, replicate 1: 7051; Renilla control light, replicate 1: 3078
